± gives the standard deviation of the averaged measurements. The entries are a selection whose mix differs from that of the whole data set. Small differences around the control level are noise.
Compound: Nc1ncnc2c1ncn2[C@@H]1O[C@H](COP(=O)(O)OP(=O)(O)NP(=O)(O)O)[C@@H](O)[C@H]1O [adenylyl imidodiphosphate]
Experiment: NP40-soluble protein abundance relative to vehicle (solubility fold change) (ratio); higher = more soluble protein in presence of AMP-PNP
Procedure, shortened: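 Eight concentrations, 0.1 to 10 mM, were tested on Jurkat crude lysate for 10 min at room temperature and then 3 min at 37 °C, in three independent experiments. The lysate was solubilised with 0.8% NP40 and benzonase, ultracentrifuged, and the supernatant TMT-labelled for LC-MS/MS. Each value is the fold change against the detergent-processed vehicle in its own replicate, from vsn-normalised intensities.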

By UniProt entry, the sequences of proteins in these tests, tags left out. Where a name states a change or a piece, a line headed by the entry shows the natural chain unless it says otherwise.
UniProt Q96BT3, whole entry: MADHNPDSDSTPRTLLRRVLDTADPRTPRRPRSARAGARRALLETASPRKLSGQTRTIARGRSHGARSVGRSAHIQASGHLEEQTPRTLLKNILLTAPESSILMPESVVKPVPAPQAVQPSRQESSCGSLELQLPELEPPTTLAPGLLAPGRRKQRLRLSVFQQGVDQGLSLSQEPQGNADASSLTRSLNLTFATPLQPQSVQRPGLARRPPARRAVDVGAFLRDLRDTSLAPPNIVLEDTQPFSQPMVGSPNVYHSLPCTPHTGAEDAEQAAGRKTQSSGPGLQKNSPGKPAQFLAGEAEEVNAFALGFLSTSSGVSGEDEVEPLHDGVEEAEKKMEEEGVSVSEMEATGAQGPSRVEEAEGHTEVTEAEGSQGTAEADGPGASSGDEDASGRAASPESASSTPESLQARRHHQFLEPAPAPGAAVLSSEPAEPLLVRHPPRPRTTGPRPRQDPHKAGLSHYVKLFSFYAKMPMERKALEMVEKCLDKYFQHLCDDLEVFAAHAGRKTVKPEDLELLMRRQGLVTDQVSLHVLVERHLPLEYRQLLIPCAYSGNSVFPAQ
UniProt Q8TDP1: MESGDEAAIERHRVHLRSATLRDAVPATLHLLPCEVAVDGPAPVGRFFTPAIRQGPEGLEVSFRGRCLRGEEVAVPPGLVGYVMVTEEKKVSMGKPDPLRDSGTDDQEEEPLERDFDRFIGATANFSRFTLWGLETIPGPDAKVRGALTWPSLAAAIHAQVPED
UniProt Q9NRD1: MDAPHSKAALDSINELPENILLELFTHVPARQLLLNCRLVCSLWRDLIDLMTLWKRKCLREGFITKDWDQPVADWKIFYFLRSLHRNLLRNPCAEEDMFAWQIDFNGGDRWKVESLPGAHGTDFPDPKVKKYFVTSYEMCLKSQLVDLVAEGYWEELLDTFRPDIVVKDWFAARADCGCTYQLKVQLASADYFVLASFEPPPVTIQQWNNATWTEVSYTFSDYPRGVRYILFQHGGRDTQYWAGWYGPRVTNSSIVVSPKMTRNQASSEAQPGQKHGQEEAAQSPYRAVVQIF
UniProt Q8NBZ0, whole entry: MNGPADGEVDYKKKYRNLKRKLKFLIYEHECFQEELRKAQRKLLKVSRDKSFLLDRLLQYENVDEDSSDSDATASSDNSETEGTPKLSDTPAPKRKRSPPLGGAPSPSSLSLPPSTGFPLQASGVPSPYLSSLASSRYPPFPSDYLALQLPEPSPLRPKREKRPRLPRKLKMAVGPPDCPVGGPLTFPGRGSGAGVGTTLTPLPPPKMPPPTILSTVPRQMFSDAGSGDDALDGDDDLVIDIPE
UniProt Q9NXE4: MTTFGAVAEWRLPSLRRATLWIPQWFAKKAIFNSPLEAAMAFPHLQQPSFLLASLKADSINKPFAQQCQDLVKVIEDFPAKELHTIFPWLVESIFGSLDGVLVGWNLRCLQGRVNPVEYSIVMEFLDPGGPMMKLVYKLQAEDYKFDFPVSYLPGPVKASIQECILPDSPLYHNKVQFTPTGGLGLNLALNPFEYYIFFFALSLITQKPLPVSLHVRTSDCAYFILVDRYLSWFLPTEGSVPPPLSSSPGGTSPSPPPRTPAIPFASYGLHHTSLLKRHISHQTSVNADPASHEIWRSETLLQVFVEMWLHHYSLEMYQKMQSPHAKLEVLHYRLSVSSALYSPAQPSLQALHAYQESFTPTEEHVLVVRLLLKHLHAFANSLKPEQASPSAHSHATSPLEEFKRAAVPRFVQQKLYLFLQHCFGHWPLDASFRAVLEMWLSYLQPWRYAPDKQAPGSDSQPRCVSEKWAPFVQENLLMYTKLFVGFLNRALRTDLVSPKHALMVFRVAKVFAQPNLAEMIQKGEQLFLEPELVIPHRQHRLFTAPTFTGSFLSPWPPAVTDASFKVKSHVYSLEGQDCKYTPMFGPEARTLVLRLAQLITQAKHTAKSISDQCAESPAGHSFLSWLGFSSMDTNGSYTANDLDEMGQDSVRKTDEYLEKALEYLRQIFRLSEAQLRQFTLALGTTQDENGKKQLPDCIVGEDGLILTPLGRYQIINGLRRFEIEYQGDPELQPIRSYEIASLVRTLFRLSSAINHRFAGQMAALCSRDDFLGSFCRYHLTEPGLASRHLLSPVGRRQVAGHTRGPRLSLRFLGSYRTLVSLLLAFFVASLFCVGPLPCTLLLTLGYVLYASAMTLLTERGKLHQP
UniProt Q9Y2V0: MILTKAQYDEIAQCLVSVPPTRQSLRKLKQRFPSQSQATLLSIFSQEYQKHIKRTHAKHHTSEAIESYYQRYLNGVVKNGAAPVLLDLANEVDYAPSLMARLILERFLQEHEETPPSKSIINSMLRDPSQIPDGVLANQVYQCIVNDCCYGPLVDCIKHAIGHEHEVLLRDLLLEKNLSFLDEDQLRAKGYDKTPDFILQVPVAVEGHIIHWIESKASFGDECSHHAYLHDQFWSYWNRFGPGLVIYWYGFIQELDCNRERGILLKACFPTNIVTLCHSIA
UniProt Q9P246, whole entry: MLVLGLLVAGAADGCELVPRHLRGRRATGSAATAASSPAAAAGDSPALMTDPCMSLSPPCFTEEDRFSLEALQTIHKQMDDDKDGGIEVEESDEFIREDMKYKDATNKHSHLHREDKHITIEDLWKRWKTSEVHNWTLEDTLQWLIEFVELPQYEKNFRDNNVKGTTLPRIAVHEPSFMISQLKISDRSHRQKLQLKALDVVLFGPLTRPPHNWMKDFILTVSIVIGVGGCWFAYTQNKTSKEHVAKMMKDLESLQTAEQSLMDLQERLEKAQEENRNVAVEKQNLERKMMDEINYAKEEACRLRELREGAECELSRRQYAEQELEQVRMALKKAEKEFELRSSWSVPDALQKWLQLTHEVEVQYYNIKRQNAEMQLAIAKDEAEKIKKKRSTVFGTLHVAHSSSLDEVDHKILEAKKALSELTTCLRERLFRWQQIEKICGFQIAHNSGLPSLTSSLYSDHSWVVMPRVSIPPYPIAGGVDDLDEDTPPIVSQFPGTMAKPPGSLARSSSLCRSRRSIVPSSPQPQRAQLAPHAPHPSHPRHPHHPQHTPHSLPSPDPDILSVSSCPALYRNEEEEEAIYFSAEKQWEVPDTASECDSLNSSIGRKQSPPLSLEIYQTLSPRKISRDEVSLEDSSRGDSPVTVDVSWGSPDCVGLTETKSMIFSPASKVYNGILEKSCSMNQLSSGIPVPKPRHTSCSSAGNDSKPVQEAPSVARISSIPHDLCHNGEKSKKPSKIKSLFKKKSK
UniProt Q5J8M3, whole entry: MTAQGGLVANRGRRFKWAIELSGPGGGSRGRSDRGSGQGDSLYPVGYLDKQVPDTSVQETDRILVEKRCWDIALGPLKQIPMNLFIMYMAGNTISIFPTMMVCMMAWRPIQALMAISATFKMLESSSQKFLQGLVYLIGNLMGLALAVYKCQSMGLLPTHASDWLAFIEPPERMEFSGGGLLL
UniProt Q8WYJ6: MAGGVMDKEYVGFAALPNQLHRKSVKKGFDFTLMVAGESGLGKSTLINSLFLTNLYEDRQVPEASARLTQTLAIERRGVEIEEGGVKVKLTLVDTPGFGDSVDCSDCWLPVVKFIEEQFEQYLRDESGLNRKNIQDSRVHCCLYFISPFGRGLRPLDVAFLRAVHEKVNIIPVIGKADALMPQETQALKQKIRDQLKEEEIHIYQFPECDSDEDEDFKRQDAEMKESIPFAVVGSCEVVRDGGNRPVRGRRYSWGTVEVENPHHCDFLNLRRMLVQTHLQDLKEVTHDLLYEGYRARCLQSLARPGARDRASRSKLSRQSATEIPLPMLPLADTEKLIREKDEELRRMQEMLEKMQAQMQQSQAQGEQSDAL
UniProt Q969X6: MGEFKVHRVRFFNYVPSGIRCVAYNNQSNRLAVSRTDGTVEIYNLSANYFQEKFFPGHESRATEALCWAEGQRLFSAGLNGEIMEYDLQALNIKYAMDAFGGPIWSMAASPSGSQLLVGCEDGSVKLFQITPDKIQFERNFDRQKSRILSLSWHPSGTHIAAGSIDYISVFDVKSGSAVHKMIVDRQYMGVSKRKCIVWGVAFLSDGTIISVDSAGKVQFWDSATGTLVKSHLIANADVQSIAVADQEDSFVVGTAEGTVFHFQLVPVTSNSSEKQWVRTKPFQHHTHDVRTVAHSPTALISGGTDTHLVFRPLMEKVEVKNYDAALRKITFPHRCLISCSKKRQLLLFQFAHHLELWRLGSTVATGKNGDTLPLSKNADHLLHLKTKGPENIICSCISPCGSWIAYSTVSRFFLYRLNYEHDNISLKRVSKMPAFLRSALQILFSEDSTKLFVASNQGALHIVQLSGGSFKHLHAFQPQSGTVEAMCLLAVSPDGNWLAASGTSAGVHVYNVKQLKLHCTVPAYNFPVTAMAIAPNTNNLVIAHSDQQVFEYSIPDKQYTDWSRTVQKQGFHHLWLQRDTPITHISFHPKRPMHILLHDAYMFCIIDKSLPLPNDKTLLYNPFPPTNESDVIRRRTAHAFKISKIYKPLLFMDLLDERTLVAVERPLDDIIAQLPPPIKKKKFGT
UniProt Q9H4I3: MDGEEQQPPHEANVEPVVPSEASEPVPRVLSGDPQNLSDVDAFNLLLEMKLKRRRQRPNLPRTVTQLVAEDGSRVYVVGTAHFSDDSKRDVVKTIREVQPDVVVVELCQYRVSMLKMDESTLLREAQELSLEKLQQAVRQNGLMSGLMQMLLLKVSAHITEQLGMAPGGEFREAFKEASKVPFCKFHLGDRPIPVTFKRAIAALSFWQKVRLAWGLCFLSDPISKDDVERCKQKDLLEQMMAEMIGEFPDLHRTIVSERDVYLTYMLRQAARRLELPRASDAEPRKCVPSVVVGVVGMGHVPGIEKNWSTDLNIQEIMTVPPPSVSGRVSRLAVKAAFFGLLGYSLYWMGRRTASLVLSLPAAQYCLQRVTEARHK
UniProt O43169: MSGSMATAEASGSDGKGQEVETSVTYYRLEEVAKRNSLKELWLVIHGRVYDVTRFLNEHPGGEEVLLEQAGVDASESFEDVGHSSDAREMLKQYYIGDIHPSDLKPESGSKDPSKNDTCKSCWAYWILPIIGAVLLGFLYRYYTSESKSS
UniProt Q9UKL0, whole entry: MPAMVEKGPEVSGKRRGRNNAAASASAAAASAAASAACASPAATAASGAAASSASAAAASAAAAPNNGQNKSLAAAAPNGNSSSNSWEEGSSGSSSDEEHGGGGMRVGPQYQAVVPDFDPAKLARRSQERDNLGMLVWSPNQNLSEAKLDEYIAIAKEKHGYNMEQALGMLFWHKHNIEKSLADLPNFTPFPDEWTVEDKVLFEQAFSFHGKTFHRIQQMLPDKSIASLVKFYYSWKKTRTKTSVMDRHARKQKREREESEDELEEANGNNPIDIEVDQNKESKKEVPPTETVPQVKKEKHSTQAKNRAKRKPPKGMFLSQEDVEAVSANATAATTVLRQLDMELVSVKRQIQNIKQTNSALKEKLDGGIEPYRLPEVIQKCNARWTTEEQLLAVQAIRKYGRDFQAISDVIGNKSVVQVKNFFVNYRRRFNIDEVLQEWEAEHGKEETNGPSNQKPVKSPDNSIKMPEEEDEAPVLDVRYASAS
UniProt Q9BUR5: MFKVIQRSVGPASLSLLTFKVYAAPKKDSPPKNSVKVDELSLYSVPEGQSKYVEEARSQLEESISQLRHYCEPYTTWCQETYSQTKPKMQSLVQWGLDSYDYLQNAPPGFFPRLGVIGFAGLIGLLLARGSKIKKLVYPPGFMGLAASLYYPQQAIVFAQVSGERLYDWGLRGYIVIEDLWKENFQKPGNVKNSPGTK
UniProt Q9UPV9: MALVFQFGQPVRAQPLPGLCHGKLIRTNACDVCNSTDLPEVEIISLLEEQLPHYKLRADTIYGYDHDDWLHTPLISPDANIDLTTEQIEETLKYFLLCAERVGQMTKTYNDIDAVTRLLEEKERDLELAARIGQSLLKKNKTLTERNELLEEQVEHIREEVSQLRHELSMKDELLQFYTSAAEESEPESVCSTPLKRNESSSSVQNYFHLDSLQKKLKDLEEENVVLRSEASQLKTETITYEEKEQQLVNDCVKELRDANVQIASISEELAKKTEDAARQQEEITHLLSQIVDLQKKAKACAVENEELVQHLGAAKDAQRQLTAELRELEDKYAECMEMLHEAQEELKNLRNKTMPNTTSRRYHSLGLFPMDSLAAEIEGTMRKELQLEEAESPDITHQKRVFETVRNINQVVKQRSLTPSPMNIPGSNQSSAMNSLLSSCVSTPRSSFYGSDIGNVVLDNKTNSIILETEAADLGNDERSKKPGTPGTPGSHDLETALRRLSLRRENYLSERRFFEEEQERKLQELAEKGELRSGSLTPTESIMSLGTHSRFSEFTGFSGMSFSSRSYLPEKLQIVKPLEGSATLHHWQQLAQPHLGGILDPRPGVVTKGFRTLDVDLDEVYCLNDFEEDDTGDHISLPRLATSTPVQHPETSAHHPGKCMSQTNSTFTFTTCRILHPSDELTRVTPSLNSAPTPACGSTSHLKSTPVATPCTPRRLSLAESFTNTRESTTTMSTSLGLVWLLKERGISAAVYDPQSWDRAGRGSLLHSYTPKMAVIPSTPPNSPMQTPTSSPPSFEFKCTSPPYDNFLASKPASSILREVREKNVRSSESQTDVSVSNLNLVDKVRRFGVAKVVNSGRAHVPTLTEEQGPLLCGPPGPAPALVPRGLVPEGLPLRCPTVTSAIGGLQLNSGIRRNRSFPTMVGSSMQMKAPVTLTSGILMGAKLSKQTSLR

Target “J3KS51 and related entries (UniProt O75376)” has an NP40-soluble protein abundance (concentration: 0.1mM) of 0.996 ± 0.032 and an NP40-soluble protein abundance (concentration: 0.5mM) of 0.998 ± 0.043.

Work on “H3BUF6 and related entries (UniProt Q8WWM7)” yielded an NP40-soluble protein abundance (concentration: 0.1mM) of 0.967 ± 0.025 and an NP40-soluble protein abundance (concentration: 0.5mM) of 1.01 ± 0.044.

With “H3BUV4 and related entries (UniProt Q9NWW5)” the NP40-soluble protein abundance (concentration: 0.1mM) was 1.07 ± 0.042 and the NP40-soluble protein abundance (concentration: 0.5mM) was 1.08 ± 0.057.

With “J3KTE4 and related entries (UniProt P84098)” the NP40-soluble protein abundance (concentration: 0.1mM) was 1.02 ± 0.045 and the NP40-soluble protein abundance (concentration: 0.5mM) was 1.01 ± 0.023.

Work on “H3BTR4 and related entries (UniProt Q96BT3)” yielded an NP40-soluble protein abundance (concentration: 0.1mM) of 1.02 ± 0.059 and an NP40-soluble protein abundance (concentration: 0.5mM) of 1.05 ± 0.039.

Work on “H0YEF3 and related entries (UniProt Q8TDP1)” yielded an NP40-soluble protein abundance (concentration: 0.1mM) of 1.01 ± 0.026 and an NP40-soluble protein abundance (concentration: 0.5mM) of 1 ± 0.042.

Work on “H3BSL4 and related entries (UniProt Q66K89)” yielded an NP40-soluble protein abundance (concentration: 0.1mM) of 0.9901 ± 0.0063 and an NP40-soluble protein abundance (concentration: 0.5mM) of 0.98 ± 0.055.

“I3L1Q3 and related entries (UniProt Q8TE02)” was tested, and the NP40-soluble protein abundance (concentration: 0.1mM) was 1 ± 0.031 and the NP40-soluble protein abundance (concentration: 0.5mM) was 1 ± 0.037.

Work on “J3KQ72 and related entries (UniProt Q9NRD1)” yielded an NP40-soluble protein abundance (concentration: 0.1mM) of 0.9964 ± 0.0056 and an NP40-soluble protein abundance (concentration: 0.5mM) of 0.9729 ± 0.0076.

With “H3BNM4 and related entries (UniProt Q8NBZ0)” the NP40-soluble protein abundance (concentration: 0.1mM) was 1 ± 0.013 and the NP40-soluble protein abundance (concentration: 0.5mM) was 1.1 ± 0.06.

In the case of “H7BXF4 and related entries (UniProt Q9NXE4)”, the NP40-soluble protein abundance (concentration: 0.1mM) is reported as 1.03 ± 0.041 and the NP40-soluble protein abundance (concentration: 0.5mM) is reported as 0.975 ± 0.11.

With “H7C1W4 and related entries (UniProt Q93075+H7C1W4)” the NP40-soluble protein abundance (concentration: 0.1mM) was 0.998 ± 0.037 and the NP40-soluble protein abundance (concentration: 0.5mM) was 0.969 ± 0.019.

“H3BNF9 and related entries (UniProt Q9Y2V0)” gave an NP40-soluble protein abundance (concentration: 0.1mM) of 1.01 ± 0.028 and an NP40-soluble protein abundance (concentration: 0.5mM) of 0.9746 ± 0.0062.

Work on “H0Y860 and related entries (UniProt Q9P246)” yielded an NP40-soluble protein abundance (concentration: 0.1mM) of 0.972 ± 0.036 and an NP40-soluble protein abundance (concentration: 0.5mM) of 0.924 ± 0.019.

In the case of “H3BMM9 and related entries (UniProt Q15287)”, the NP40-soluble protein abundance (concentration: 0.1mM) is reported as 1.07 ± 0.06 and the NP40-soluble protein abundance (concentration: 0.5mM) is reported as 1.03 ± 0.06.

“H0YK61 and related entries (UniProt Q5J8M3)” showed an NP40-soluble protein abundance (concentration: 0.1mM) of 0.963 ± 0.051 and an NP40-soluble protein abundance (concentration: 0.5mM) of 0.996 ± 0.069.

“I3L2M1 and related entries (UniProt Q8WYJ6)” was tested, and the NP40-soluble protein abundance (concentration: 0.1mM) was 1.01 ± 0.013 and the NP40-soluble protein abundance (concentration: 0.5mM) was 0.991 ± 0.027.

For “H3BPT7 and related entries (UniProt Q8N554)”, the NP40-soluble protein abundance (concentration: 0.1mM) was 0.982 ± 0.0079 and the NP40-soluble protein abundance (concentration: 0.5mM) was 1.01 ± 0.032.

Work on “H3BSH7 and related entries (UniProt Q969X6)” yielded an NP40-soluble protein abundance (concentration: 0.1mM) of 1 ± 0.025 and an NP40-soluble protein abundance (concentration: 0.5mM) of 0.997 ± 0.042.

Target “H7C4C8 and related entries (UniProt P50990)” has an NP40-soluble protein abundance (concentration: 0.1mM) of 1.01 ± 0.02 and an NP40-soluble protein abundance (concentration: 0.5mM) of 1 ± 0.025.

“J3KPT4 and related entries (UniProt Q9H4I3)” showed an NP40-soluble protein abundance (concentration: 0.1mM) of 1 ± 0.029 and an NP40-soluble protein abundance (concentration: 0.5mM) of 1.01 ± 0.08.

Work on “J3KNF8 and related entries (UniProt O43169)” yielded an NP40-soluble protein abundance (concentration: 0.1mM) of 1.04 ± 0.11 and an NP40-soluble protein abundance (concentration: 0.5mM) of 1.07 ± 0.12.

“J3KN32 and related entries (UniProt Q9UKL0)” gave an NP40-soluble protein abundance (concentration: 0.1mM) of 1.02 ± 0.06 and an NP40-soluble protein abundance (concentration: 0.5mM) of 1.06 ± 0.069.

Target “H7C1U8 and related entries (UniProt Q9BUR5)” has an NP40-soluble protein abundance (concentration: 0.1mM) of 1.06 ± 0.025 and an NP40-soluble protein abundance (concentration: 0.5mM) of 1 ± 0.037.

“H7BYJ3 and related entries (UniProt O14578)” was tested, and the NP40-soluble protein abundance (concentration: 0.1mM) was 0.99 ± 0.017 and the NP40-soluble protein abundance (concentration: 0.5mM) was 0.975 ± 0.027.

H7C3T3 (UniProt Q9UPV9) showed an NP40-soluble protein abundance (concentration: 0.1mM) of 0.956 ± 0.043 and an NP40-soluble protein abundance (concentration: 0.5mM) of 0.925 ± 0.045.
